# System: T1, Recombinant human Keap1
# T1 construct: His (N); made in house; host or cells: E. coli BL21 (DE3)
# Assay: LC/MS/MS detection of cysteines modified by PBA
# Assay type: binding
structure (smiles),measurement,setting,value
"C=C(COC(=O)C=Cc1ccc(O)c(O)c1)C(O)COC1OC(CO)C(O)C(O)C1O (centres unmarked) [PBA, pubescenoside A]","covalent modifications at Cys77, Cys23, Cys38, Cys273 and Cys236",MS study,similarly discovered
same,increase in mass of chymotrypic peptide covering Cys434,"recombinant Keap1 incubated with PBA, MS analysis",442.14

# Reference: publication PMC7738871, “Covalent modification of Keap1 at Cys77 and Cys434 by pubescenoside a suppresses oxidative stress-induced NLRP3 inflammasome activation in myocardial ischemia-reperfusion injury” (Theranostics, 2021)
